Reference: patent US12102644B2, “Compounds and methods of promoting myelination” (Case Western Reserve University, priority 2019, dated 2024)

Chains of the proteins cited; added tags and fusions are not shown.
UniProt P08912, whole entry: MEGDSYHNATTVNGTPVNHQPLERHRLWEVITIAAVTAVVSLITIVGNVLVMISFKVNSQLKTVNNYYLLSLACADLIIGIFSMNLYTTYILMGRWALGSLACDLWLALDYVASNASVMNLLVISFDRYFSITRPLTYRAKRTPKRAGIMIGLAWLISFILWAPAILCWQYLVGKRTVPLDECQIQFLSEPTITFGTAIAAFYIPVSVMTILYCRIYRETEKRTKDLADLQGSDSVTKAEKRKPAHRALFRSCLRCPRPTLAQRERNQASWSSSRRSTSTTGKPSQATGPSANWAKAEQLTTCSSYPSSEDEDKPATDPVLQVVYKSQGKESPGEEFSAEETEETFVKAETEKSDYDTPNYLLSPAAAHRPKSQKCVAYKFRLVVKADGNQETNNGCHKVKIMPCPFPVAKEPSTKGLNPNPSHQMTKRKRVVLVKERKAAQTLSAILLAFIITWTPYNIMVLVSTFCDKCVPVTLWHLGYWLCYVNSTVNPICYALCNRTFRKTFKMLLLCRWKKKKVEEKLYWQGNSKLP

Experiments:
muscarinic receptor M5 = muscarinic receptor M5 (Homo sapiens, UniProt P08912); settings: 2 μM
EBP = biological target: T1, EBP (Mus musculus, UniProt P70245); assay: EBP enzymatic assay (GC/MS); format: biochemical; settings: small molecules 10 μM, zymostenol 25 μM, 2 h
T1 construct: active EBP was obtained from mouse microsomes; from tissue
T1 sequence (P70245 1-230): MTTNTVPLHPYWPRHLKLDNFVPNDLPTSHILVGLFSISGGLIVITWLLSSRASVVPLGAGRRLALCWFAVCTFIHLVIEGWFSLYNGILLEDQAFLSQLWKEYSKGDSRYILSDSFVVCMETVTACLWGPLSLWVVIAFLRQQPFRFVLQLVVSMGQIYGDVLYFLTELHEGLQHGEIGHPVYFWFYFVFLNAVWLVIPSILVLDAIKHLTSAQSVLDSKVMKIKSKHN

[1] = tested on: sterol levels in OPCs (cholesterol biosynthesis pathway); assay: GC/MS-based sterol profiling in OPCs; format: cell-based, mouse; settings: 24 h treatment

CN1CCC[C@@H]1CCO[C@](C)(c1ccccc1)c1ccc(Cl)cc1 [clemastine, Clemastine]
inhibition of muscarinic receptor M5 isoform (muscarinic receptor M5): near-complete inhibition | inhibition of EBP enzymatic activity (EBP): clear inhibition | accumulation of sterol intermediates in OPCs (enzyme inhibition in OPCs, e.g. EBP) [1]: induced accumulation of zymostenol and zymosterol and decreased basal sterol levels
